Measurements: US20160017024A1
Results are given in words; binding and its absence hold for the method and conditions named. Some results given as binding are weak or reduced against the parent protein; the word gives no strength.

Tests used:
[1] = biological target: Human ALK ECD-Fc (human); assay: SPR (Biacore T100), ECD-Fc captured on anti-human IgG CM4 chip, FAM150B as analyte
[2] = biological target: Human LTK extracellular domain (ECD)-Fc (human); assay: as above

binding [1]: binds
binding [2]: binds
B1: Human FAM150B (ligand)
chain: GAEPREPADGQALLRLVVELVQELRKHHSAEHKGLQLLGRDCALGRAEAAGLGPSPEQRVEIVPRDLRMKDKFLKHLTGPLYFSPKCSKHFHRLYHNTRDCTIPAYYKRCARLLTRLAVSPVCMEDKQ
